Publication PMC4960799

By UniProt entry, the sequences of proteins in these tests, tags left out. Where a name states a change or a piece, a line headed by the entry shows the natural chain unless it says otherwise.
UniProt P20152: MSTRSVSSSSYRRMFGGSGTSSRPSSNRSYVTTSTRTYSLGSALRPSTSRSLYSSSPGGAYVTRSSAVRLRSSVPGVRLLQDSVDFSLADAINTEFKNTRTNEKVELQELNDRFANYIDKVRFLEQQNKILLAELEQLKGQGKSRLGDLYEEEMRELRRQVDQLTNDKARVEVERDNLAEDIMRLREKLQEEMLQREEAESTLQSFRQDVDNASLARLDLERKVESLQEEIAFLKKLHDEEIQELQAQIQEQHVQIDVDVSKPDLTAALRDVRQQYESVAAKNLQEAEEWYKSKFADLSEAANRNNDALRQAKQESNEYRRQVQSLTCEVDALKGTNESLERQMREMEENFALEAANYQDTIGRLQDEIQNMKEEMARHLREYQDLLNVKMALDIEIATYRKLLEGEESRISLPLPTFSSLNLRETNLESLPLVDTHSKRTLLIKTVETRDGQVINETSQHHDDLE
UniProt P63330: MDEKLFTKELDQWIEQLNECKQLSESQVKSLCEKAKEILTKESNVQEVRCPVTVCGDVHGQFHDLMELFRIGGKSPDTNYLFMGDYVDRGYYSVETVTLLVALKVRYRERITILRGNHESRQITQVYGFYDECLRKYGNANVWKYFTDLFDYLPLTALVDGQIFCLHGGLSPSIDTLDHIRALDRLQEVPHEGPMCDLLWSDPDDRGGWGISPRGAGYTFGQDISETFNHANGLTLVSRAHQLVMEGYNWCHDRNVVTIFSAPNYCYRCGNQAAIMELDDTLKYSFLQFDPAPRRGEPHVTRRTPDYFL

Biological target: vimentin (mouse (endogenous in tracheal rings)) (UniProt P20152)
Experiment: co-IP; extracts of mouse tracheal rings, unstimulated or stimulated with ACh (10^-4 M, 5 min); incubated overnight with antibody, protein A-Sepharose beads; washed four times in 50 mM Tris-HCl pH 7.6, 150 mM NaCl, 0.1 % Triton X-100; immunoblot

binding: binds weakly
Substance: protein phosphatase 2A (from UniProt P63330) (enzyme)

These are yes or no findings as the source states them, for the method shown. Binding seen in cells or lysates may run through a third protein. A result given as binding can be weak or reduced; the word gives no strength.
